At least one peptide structure holds a part that was inferred or is arguable (an end, a ring closure or a residue). No end group written: not given here.
Test system: FLIL33
Assay: IL-33 levels by ELISA in lysates of primary fibroblasts electroporated with FLIL33-encoding plasmid, peptides added
Format: cell-based

| Substance | depletion of the levels of FLIL33 at concentrations lower than 2.5 μM (serial dilutions, lower concentrations) | effect on expression levels of IL-33 (ELISA, cell lysates) (20 μM and 40 μM, 24 h) |
| --- | --- | --- |
| RQIKIWFQNRRMKWKKFMKLRSGLMIKKEA-NH2 [peptide 1-1] | fails to deplete the levels of FLIL33 | – |
| RQIKIWFQNRRMKWKKFRRETTKRPSLKTG-NH2 [peptide 1-2, ROIKIWFONRRMKWKKFRRETTKRPSLKTG] | – | no effect |

Reference: patent US20250188141A1, “DECOY PEPTIDES FOR TREATING DISEASES OR CONDITIONS MODULATED BY INTERLEUKIN-33” (University of Maryland, Baltimore, priority 2022, published 2025)
